Experiment [1] has as its target T1, Retinoic acid-inducible gene I (RIG-I), endogenous in 293T cells (human (endogenous in 293T)) (UniProt O95786).
T1 sequence: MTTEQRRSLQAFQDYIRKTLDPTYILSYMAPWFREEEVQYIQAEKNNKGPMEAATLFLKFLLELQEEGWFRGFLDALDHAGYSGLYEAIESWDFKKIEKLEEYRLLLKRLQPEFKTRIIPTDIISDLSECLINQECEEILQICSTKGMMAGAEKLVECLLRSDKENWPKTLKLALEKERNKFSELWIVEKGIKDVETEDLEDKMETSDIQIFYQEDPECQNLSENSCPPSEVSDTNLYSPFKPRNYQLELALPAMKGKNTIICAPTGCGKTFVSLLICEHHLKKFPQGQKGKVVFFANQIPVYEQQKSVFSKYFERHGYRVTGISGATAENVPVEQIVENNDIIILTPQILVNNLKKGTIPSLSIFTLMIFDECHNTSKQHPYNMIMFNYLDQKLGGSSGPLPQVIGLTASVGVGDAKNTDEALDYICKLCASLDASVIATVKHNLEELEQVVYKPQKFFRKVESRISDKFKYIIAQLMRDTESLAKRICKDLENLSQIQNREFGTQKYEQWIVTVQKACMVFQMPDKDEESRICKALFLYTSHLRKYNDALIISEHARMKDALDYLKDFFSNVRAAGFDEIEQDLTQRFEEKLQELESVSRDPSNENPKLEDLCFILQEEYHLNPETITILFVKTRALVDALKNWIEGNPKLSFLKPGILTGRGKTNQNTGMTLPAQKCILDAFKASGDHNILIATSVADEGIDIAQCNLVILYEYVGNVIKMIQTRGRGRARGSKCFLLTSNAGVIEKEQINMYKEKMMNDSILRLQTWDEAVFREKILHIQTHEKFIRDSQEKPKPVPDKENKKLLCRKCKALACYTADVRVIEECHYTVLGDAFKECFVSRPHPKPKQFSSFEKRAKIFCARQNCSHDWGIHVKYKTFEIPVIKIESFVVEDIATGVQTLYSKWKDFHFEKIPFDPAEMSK
Description: co-IP; endogenous proteins; 293T cells uninfected or infected with SeV for 4 or 8 h; lysates immunoprecipitated with control IgG or anti-RIG-I antibody; immunoblot. A general note: Immunoblotting shows a protein as a band on a membrane.

The chains behind the UniProt entries cited, without tags or fusion partners.
UniProt Q7Z434: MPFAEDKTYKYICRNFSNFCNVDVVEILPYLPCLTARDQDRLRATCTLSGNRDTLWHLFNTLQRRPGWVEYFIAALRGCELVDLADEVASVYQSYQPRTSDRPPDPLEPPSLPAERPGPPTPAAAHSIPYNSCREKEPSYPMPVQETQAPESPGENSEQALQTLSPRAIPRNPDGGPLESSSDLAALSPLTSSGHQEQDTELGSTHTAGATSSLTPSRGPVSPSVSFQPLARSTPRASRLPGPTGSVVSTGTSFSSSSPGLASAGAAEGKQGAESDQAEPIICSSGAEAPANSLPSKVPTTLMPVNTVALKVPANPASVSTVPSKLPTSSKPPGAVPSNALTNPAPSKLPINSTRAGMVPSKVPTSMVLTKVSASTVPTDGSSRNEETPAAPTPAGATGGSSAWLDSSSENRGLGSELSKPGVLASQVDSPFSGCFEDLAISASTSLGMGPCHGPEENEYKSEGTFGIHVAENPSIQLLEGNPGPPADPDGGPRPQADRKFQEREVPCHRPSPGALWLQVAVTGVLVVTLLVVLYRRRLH

Experiment [2] addresses T2, FLAG-tagged RIG-I-N (1-284), N-terminal CARD of RIG-I (human) (UniProt O95786).
T2 sequence: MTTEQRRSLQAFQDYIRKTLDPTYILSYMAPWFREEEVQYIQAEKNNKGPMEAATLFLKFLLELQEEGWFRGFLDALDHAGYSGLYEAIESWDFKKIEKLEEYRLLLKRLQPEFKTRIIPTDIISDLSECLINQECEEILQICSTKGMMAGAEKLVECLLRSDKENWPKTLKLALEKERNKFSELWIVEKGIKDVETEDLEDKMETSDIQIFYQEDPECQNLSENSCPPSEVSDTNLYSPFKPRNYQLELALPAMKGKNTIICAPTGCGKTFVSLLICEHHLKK
Description: co-IP; 293T cells transfected with expression plasmids, uninfected or infected with SeV; lysis in 1% Triton, 20 mM Tris-HCl pH 7.5, 150 mM NaCl, 1 mM EDTA; protein G/A-Sepharose beads with the indicated antibodies overnight at 4°C; immunoblot.

The target in experiment [3] is Mitochondrial antiviral signaling (MAVS) protein, transfected in 293T cells (UniProt Q7Z434). The description is as above.
The target of experiment [4] is T3, Retinoic acid-inducible gene I (RIG-I), transfected in 293T cells (Figures 1A and 1E; tag not told) (human) (UniProt O95786).
T3 sequence: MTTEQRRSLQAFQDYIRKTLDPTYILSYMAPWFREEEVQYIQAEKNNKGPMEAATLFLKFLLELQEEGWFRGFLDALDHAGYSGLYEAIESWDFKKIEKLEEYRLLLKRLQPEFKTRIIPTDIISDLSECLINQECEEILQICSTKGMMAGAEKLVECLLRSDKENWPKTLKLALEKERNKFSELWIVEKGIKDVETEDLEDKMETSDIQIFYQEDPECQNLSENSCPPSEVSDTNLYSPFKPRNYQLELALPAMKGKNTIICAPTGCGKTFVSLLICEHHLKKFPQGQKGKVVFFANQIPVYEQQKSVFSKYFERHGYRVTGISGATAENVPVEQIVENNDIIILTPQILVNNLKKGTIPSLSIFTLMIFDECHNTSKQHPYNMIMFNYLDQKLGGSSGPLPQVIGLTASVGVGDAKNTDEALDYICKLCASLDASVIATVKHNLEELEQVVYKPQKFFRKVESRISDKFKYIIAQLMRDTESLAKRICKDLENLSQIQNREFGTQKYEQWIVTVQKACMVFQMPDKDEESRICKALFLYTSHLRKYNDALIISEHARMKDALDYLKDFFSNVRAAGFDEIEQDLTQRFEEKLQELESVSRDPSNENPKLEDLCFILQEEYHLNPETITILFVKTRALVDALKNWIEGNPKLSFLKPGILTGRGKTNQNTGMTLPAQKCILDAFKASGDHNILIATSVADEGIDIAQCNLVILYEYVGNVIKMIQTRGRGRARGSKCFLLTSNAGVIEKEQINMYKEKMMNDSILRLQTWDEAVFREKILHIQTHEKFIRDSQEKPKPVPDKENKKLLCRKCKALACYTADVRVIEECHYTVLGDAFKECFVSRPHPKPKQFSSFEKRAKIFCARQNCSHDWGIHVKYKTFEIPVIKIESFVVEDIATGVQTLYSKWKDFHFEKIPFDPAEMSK
Described as above.

These are yes or no findings as the source states them, for the method shown. In cells and extracts the contact can be indirect. Some results given as binding are weak or reduced against the parent protein; the word gives no strength. For some of these results: Where a sequence is shown, tags or fusion partners need not be part of it.

This is an account of results in publication PMC10577479.

B1: Zinc finger protein 205 (ZNF205), endogenous in 293T cells (protein, UniProt O95201 1-554)
chain: MSADGGGIQDTQDKETPPEVPDRGHPHQEMPSKLGEAVPSGDTQESLHIKMEPEEPHSEGASQEDGAQGAWGWAPLSHGSKEKALFLPGGALPSPRIPVLSREGRTRDRQMAAALLTAWSQMPVTFEDVALYLSREEWGRLDHTQQNFYRDVLQKKNGLSLGFPFSRPFWAPQAHGKGEASGSSRQAGDEKEWRGACTGAVEVGQRVQTSSVAALGNVKPFRTRAGRVQWGVPQCAQEAACGRSSGPAKDSGQPAEPDRTPDAAPPDPSPTEPQEYRVPEKPNEEEKGAPESGEEGLAPDSEVGRKSYRCEQCGKGFSWHSHLVTHRRTHTGEKPYACTDCGKRFGRSSHLIQHQIIHTGEKPYTCPACRKSFSHHSTLIQHQRIHTGEKPYVCDRCAKRFTRRSDLVTHQGTHTGAKPHKCPICAKCFTQSSALVTHQRTHTGVKPYPCPECGKCFSQRSNLIAHNRTHTGEKPYHCLDCGKSFSHSSHLTAHQRTHRGVRPYACPLCGKSFSRRSNLHRHEKIHTTGPKALAMLMLGAAAAGALATPPPAPT
For B1, the binding entry in experiment [1] is reported as “binds”.

B2: myc-ZNF205 (protein, UniProt O95201 1-554)
chain: MSADGGGIQDTQDKETPPEVPDRGHPHQEMPSKLGEAVPSGDTQESLHIKMEPEEPHSEGASQEDGAQGAWGWAPLSHGSKEKALFLPGGALPSPRIPVLSREGRTRDRQMAAALLTAWSQMPVTFEDVALYLSREEWGRLDHTQQNFYRDVLQKKNGLSLGFPFSRPFWAPQAHGKGEASGSSRQAGDEKEWRGACTGAVEVGQRVQTSSVAALGNVKPFRTRAGRVQWGVPQCAQEAACGRSSGPAKDSGQPAEPDRTPDAAPPDPSPTEPQEYRVPEKPNEEEKGAPESGEEGLAPDSEVGRKSYRCEQCGKGFSWHSHLVTHRRTHTGEKPYACTDCGKRFGRSSHLIQHQIIHTGEKPYTCPACRKSFSHHSTLIQHQRIHTGEKPYVCDRCAKRFTRRSDLVTHQGTHTGAKPHKCPICAKCFTQSSALVTHQRTHTGVKPYPCPECGKCFSQRSNLIAHNRTHTGEKPYHCLDCGKSFSHSSHLTAHQRTHRGVRPYACPLCGKSFSRRSNLHRHEKIHTTGPKALAMLMLGAAAAGALATPPPAPT
Consider B2, for which the binding entry in experiment [2] was “binds”.

B3: Zinc finger protein 205 (ZNF205), transfected in 293T cells (Figure 1A; tag not told) (protein, UniProt O95201 1-554)
chain: MSADGGGIQDTQDKETPPEVPDRGHPHQEMPSKLGEAVPSGDTQESLHIKMEPEEPHSEGASQEDGAQGAWGWAPLSHGSKEKALFLPGGALPSPRIPVLSREGRTRDRQMAAALLTAWSQMPVTFEDVALYLSREEWGRLDHTQQNFYRDVLQKKNGLSLGFPFSRPFWAPQAHGKGEASGSSRQAGDEKEWRGACTGAVEVGQRVQTSSVAALGNVKPFRTRAGRVQWGVPQCAQEAACGRSSGPAKDSGQPAEPDRTPDAAPPDPSPTEPQEYRVPEKPNEEEKGAPESGEEGLAPDSEVGRKSYRCEQCGKGFSWHSHLVTHRRTHTGEKPYACTDCGKRFGRSSHLIQHQIIHTGEKPYTCPACRKSFSHHSTLIQHQRIHTGEKPYVCDRCAKRFTRRSDLVTHQGTHTGAKPHKCPICAKCFTQSSALVTHQRTHTGVKPYPCPECGKCFSQRSNLIAHNRTHTGEKPYHCLDCGKSFSHSSHLTAHQRTHRGVRPYACPLCGKSFSRRSNLHRHEKIHTTGPKALAMLMLGAAAAGALATPPPAPT
For B3, the binding result in experiment [3] and in experiment [4] was “binds” throughout.
